System: S. aureus
Test: Evaluation of rapid antimicrobial activity in presence of serum (S. aureus)
Format: cell-based
Protocol: Evaluation of Rapid Antimicrobial Activity in Presence of Serum.
To determine the efficacy of the antimicrobial composition on the skin, which may be contaminated with blood or other proteinaceous fluids containing bacteria, the antimicrobial activity was evaluated in the presence of serum as follows. Briefly, 0.5 ml of 10^8 CFU of S. aureus/ml was added to 0.5 ml of bovine adult serum in a sterile culture tube and mixed. 0.5 ml of the test formulation was added to each tube and vortexed. After 15 seconds, it was further diluted 1:100 with drug inactivating media (LTSB) and 0.5 ml was plated on a TSA plate. The plates were incubated at 37° C. for 24 hours and the colony count per ml of culture was determined.

CC(C)(C)CC(C)(C)c1ccc(OCCOCC[N+](C)(C)Cc2ccccc2)cc1 [BZT, benzethonium chloride]
whether farnesol shows synergy with or enhances the antimicrobial agent, in words (Example 6, Table 6, % w/w): shows synergy | whether farnesol shows synergy with or enhances the antimicrobial agent, in words (Example 6, Table 7, molar proportions): synergistic antimicrobial activity
